Results taken from patent US8383617B2, “Treatment of protein aggregation diseases” (priority 2007, dated 2013).

By UniProt entry, the sequences of proteins in these tests, tags left out. Residues count along the entry.
UniProt P05067, 672-711: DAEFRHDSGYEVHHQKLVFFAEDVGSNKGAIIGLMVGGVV

Biological target: Synthetic beta-amyloid peptide 1-40 (Homo sapiens, UniProt P05067)
Assay: Seprion assay screen for compounds that affect amyloid aggregation
Format: biochemical
Conditions: test compounds at 1 mM; peptide 2.8 μg/ml, 30 min at 37° C.; Seprion assay signal

SMILES: CSc1ccc2c(c1)N(CCC1CCCCN1C)c1ccccc1S2.Cl (stereo not shown) [Thioridazine, thioridazine]
- Relative aggregation compared to 'no compound' aggregation control: 11.9%
